From PMC11260172

Biological target: T1, CSRNP3-Flag (UniProt Q8WYN3)
T1 sequence: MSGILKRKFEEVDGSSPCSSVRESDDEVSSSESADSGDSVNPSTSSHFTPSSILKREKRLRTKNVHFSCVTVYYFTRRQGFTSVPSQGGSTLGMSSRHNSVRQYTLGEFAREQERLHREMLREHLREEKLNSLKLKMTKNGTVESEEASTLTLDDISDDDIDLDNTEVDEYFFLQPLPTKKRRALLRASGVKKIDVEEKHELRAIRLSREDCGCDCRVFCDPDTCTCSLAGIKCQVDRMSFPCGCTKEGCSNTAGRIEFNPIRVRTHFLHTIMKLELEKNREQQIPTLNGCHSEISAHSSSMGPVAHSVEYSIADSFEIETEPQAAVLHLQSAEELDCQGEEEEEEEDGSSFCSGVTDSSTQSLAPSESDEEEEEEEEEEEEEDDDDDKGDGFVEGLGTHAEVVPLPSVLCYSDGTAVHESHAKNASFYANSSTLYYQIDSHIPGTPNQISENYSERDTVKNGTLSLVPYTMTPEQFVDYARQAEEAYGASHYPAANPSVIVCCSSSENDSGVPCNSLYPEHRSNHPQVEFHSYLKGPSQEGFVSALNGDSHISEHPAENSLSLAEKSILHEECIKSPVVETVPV
Test: affinity purification with mass spectrometry; IP with anti-Flag antibodies in PC-9 cells transfected with a vector expressing Flag-CSRNP3; control anti-IgG; silver staining and mass spectrometry

binding: binds
Substance: catalytic subunit of Ser/Thr phosphatase-1 (PP1) (human (endogenous in PC-9)) (enzyme)

No constants are given. Whether binding was seen depends on the method and setting. Binding seen in cells or lysates may run through a third protein. These calls come from enrichment with a bait or labelling near it, and not all partners need be listed. Where a sequence is shown, tags or fusion partners need not be part of it.
